{
  "sequences": {"note": "The chains behind the UniProt entries cited, without tags or fusion partners. Where a name states a change or a piece, a line headed by the entry shows the natural chain unless it says otherwise.", "UniProt Q5SWA1": "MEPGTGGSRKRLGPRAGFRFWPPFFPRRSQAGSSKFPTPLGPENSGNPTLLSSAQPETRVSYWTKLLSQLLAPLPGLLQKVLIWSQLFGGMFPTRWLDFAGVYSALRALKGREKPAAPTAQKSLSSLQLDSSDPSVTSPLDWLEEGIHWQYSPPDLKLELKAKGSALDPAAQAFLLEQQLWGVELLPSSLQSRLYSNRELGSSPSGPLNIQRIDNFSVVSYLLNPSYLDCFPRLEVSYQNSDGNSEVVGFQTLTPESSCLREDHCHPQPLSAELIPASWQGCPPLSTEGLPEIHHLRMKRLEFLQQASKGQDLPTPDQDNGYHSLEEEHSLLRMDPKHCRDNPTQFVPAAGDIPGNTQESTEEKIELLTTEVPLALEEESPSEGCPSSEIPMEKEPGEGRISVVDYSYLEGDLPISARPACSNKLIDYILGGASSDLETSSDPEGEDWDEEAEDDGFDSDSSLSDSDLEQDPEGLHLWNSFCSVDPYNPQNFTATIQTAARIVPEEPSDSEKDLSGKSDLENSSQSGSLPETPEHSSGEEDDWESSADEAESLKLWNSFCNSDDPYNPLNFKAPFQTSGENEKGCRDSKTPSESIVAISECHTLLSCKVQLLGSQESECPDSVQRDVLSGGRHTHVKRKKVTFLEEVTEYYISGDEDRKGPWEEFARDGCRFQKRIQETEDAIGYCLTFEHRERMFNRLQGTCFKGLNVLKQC", "UniProt Q5T2D3, whole entry": "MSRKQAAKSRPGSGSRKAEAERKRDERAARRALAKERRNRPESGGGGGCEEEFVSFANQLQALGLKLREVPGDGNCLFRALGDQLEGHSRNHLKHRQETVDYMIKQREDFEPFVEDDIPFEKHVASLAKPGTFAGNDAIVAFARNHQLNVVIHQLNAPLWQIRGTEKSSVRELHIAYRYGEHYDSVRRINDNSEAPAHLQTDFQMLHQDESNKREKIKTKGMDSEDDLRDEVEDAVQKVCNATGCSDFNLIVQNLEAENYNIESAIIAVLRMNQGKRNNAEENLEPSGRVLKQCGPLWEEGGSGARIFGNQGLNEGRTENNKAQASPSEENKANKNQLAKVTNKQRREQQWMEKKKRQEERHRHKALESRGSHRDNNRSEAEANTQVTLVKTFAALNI", "UniProt Q5T6J7": "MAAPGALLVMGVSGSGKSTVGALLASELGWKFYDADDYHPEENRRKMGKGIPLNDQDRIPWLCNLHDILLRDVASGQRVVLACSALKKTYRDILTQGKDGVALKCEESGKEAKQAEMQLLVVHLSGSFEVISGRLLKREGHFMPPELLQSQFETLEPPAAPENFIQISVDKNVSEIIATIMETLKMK", "UniProt Q58A45": "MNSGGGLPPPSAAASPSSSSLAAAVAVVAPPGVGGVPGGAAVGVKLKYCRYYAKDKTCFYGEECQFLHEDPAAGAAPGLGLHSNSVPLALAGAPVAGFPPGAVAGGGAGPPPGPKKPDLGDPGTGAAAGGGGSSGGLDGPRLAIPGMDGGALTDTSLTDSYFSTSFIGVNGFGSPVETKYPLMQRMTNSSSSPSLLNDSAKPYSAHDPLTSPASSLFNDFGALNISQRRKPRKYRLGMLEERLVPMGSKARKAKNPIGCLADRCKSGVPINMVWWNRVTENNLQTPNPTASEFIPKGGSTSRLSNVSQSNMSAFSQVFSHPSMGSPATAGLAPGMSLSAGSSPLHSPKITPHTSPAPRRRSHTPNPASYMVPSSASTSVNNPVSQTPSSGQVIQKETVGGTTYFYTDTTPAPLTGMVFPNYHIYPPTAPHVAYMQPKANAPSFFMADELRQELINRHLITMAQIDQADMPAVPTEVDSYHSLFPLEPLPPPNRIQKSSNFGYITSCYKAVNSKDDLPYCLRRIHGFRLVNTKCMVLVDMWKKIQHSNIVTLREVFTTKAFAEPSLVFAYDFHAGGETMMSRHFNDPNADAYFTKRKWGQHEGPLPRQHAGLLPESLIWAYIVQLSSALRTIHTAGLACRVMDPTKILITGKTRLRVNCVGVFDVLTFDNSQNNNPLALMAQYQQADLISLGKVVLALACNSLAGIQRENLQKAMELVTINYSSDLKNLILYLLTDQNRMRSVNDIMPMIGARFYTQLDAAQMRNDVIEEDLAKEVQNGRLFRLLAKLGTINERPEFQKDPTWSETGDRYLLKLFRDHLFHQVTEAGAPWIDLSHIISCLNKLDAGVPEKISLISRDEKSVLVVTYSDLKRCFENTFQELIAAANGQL", "UniProt Q569H4": "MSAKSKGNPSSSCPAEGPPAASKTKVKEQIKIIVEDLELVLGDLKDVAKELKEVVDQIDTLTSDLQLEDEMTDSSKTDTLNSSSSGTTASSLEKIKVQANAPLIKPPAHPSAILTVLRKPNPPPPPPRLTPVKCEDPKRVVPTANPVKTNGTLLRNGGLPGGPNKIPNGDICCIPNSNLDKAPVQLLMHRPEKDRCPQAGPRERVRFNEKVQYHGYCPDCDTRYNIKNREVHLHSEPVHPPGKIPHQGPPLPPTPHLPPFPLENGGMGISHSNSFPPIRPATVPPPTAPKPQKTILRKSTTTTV", "UniProt Q5JXC2": "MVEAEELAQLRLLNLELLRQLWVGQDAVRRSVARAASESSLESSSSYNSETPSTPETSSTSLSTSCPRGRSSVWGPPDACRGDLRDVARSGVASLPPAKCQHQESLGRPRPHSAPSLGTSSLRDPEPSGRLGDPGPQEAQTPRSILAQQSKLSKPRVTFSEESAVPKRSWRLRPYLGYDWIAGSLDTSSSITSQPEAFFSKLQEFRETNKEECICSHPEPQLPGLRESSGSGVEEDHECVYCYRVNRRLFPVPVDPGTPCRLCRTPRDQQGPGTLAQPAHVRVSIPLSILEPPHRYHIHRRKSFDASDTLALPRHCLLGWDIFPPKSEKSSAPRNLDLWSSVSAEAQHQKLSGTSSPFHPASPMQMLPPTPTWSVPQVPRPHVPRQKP", "UniProt Q53G59": "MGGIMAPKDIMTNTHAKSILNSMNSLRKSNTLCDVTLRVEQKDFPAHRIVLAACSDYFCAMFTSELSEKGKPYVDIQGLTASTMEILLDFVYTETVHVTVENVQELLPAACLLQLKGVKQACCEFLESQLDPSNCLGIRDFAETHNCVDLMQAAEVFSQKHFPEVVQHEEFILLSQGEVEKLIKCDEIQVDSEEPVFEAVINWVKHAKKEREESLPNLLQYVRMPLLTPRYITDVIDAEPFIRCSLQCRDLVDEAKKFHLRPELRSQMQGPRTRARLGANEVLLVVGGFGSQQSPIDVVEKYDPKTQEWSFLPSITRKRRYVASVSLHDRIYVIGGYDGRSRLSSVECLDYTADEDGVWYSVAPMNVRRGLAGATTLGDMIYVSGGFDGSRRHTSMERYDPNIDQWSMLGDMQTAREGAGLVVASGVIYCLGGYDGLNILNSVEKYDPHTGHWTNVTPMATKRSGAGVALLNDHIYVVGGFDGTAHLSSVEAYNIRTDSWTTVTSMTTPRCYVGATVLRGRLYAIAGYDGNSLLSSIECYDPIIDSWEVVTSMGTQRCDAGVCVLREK", "UniProt Q52LJ0": "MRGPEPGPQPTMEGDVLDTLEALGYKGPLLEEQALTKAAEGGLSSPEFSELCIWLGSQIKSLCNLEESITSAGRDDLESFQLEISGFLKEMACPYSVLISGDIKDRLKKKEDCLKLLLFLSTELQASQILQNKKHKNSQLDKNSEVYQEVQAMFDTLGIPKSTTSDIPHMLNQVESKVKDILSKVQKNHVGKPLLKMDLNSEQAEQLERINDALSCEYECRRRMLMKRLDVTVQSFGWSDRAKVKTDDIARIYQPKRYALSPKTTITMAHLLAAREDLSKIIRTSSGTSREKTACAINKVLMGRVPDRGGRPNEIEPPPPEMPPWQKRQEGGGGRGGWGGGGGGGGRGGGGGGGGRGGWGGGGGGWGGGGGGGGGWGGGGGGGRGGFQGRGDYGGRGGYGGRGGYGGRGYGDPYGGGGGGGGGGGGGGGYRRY"},
  "source": "the supplement of paper PMC12819154",
  "about": "“High-throughput peptide-centric local stability assay extends protein–ligand identification to membrane proteins, tissues and bacteria” (Nature Structural & Molecular Biology, 2025)",
  "note": "The list shows a part of the results. Most entries show no effect beyond the scatter of the controls.",
  "data": [
    {"compound": "CN[C@@H]1C[C@H]2O[C@@](C)([C@@H]1OC)n1c3ccccc3c3c4c(c5c6ccccc6n2c5c31)C(=O)NC4 [staurosporine]", "assay": "log2 fold change of tryptic peptide abundance, ligand vs vehicle (limited proteolysis) (log2 ratio); higher = more trypsin-susceptible (destabilized)", "details": "ligand concentration: 20 uM; sample: K562 cleared lysate; digestion: 4 min, 22 C (HT-PELSA RT4min, Orbitrap Astral)", "values": [
      {"target": "PPP1R15B (peptide sequence: LLSQLLAPLPGLLQK, peptide start residue: 66) (UniProt Q5SWA1)", "log2 fold change": -0.704},
      {"target": "UniProt Q5T2D3 (peptide sequence: AQASPSEENK, peptide start residue: 323)", "log2 fold change": -0.521},
      {"target": "UniProt Q5T6J7 (peptide sequence: VVLACSALK, peptide start residue: 79)", "log2 fold change": -0.12},
      {"target": "PAN3 (peptide sequence: NPIGCLADRCK, peptide start residue: 255) (UniProt Q58A45)", "log2 fold change": -0.357},
      {"target": "PRR16 (peptide sequence: ERVRFNEK, peptide start residue: 203) (UniProt Q569H4)", "log2 fold change": 0.263},
      {"target": "UniProt Q4AE62 (peptide sequence: QEYLGNSLR, peptide start residue: 233)", "log2 fold change": 0.208},
      {"target": "MIIP (peptide sequence: LLNLELLR, peptide start residue: 12) (UniProt Q5JXC2)", "log2 fold change": -0.0991},
      {"target": "KLHL12 (peptide sequence: EREESLPNLLQYVR, peptide start residue: 210) (UniProt Q53G59)", "log2 fold change": -0.0201},
      {"target": "FAM98B (peptide sequence: KKEDCLK, peptide start residue: 109) (UniProt Q52LJ0)", "log2 fold change": 0.445}
    ]}
  ]
}
